This note sets out measurements from paper PMC5676842.

Chains of the proteins cited; added tags and fusions are not shown.
UniProt P41241: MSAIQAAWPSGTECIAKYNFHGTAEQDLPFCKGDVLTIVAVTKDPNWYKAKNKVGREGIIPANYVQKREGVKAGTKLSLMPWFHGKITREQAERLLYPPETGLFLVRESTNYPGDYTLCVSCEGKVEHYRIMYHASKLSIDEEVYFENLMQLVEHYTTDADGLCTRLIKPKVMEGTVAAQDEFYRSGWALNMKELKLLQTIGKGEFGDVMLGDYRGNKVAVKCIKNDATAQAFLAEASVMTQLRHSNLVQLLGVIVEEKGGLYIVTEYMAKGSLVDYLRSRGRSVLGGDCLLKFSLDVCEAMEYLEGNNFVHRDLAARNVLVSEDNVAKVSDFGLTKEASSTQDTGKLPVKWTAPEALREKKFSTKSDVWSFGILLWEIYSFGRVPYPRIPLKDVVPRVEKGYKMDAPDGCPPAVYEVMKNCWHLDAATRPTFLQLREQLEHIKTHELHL

For this assay, the target named is T1, PTPN22 (mouse (endogenous in OT-1 T cells)) (UniProt P29352).
T1 sequence: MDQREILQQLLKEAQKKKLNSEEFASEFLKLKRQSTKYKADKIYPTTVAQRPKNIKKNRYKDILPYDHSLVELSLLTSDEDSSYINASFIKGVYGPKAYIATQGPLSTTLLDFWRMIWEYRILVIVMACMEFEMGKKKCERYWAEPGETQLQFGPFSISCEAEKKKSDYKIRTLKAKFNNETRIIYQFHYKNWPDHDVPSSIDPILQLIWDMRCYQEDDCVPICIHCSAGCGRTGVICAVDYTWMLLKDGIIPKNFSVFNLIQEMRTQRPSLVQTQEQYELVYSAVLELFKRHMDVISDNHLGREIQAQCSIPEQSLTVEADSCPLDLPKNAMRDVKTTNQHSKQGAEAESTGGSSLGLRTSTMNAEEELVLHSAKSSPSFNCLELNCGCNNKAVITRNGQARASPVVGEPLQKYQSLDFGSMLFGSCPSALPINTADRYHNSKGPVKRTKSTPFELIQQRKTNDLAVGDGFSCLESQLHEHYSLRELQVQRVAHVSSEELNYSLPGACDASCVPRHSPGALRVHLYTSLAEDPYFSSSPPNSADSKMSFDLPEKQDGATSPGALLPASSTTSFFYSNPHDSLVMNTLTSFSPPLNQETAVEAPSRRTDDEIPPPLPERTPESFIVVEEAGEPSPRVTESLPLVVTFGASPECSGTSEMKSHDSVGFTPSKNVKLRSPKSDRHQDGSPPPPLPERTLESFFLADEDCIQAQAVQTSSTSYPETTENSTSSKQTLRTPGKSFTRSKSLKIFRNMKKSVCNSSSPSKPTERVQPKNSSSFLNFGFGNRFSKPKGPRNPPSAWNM
Description: co-IP; lysates of OT-1 T cells (stimulated 2 d with 0.01 uM N4, expanded 6 d in IL-2, treated 2.5 h with or without TGFβ 5 ng/ml); lysis in 1% TritonX-100, 0.5% n-dodecyl-b-D-maltoside, 50 mM Tris-HCl, 150 mM NaCl, 20 mM EDTA; immunoprecipitated with anti-Ptpn22 antibody on Dynabeads protein G, blotted for Ptpn22 and CSK.

Results are given in words; binding and its absence hold for the method and conditions named. In cells and extracts the contact can be indirect. Some binding calls cover weakened binding; strength is not graded here.

On to Csk (from UniProt P41241 1-450), for which the binding result is recorded as “binds”.
